Test results taken from patent publication US11655244B2, “Carbazole compounds and methods of use thereof” (GSNO Therapeutics, Inc, priority 2017, dated 2023).
For at least one compound, name, drawing or mass did not settle the structure.

System: non-alcoholic steatohepatitis (NASH) in male C57BL/6 mice
Assay: Non-alcoholic steatohepatitis (NASH) model, Streptozotocin plus 60% kcal fat diet
Format: in vivo
Settings: 10 mg/kg once daily
Description: Timed pregnant mice (n=44) were selected for the study. The delivered pups were subcutaneously injected on post-natal day 2 with 200 μg of Streptozotocin and were allowed to remain with the mother until they reached the weanling age. After weanling, the male pups were selected and fed with 60% kcal fat diet (Research Diet-D12492) for next 6 weeks. All the animals were observed once daily for clinical signs and twice daily for morbidity and mortality.
Mice were dosed with vehicle, Compound 17 (at 3 mg/kg or 10 mg/kg) and 10 mg/kg of reference compound (either Obeticholic acid (OCA) or Elafibranor (ELA, GFT505)) once daily before the start of dark cycle (6:00 PM) from day 0 to 21. Animal body weight measurements were made daily for the complete duration of the experiment. Animals were dosed for 21 days (from week 9 to 12) with the test and reference compounds. Blood glucose was estimated before the treatment start, day 11 and on the termination day. Histopathology analysis including the H&E staining, Masson's trichrome staining and the Oil-red-O (ORO) staining was performed for the liver tissues.

CC[C@H]1[C@@H](O)[C@@H]2[C@H](CC[C@]3(C)[C@@H]([C@H](C)CCC(=O)O)CC[C@@H]23)[C@@]2(C)CC[C@@H](O)C[C@@H]12 [Obeticholic acid]
plasma glucose relative to disease control (in words): neither OCA nor ELA reduced glucose
